Experimental data from US20050142634A1, “Novel modulator of non-genomic activity of nuclear receptors (mnar) and uses thereof” (Wyeth, priority 2001, published 2005).

Chains of the proteins cited; added tags and fusions are not shown. Residues count along the entry.
UniProt Q92731, residues 248-530: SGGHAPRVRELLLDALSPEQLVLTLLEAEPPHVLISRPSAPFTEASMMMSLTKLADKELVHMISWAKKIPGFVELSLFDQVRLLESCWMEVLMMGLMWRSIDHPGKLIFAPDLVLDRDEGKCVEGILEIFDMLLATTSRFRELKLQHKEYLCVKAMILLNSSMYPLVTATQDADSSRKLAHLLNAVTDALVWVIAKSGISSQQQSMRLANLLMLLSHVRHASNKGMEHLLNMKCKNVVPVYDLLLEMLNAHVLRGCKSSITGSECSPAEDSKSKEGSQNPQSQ
UniProt Q9Y6Q9, residues 2-1424: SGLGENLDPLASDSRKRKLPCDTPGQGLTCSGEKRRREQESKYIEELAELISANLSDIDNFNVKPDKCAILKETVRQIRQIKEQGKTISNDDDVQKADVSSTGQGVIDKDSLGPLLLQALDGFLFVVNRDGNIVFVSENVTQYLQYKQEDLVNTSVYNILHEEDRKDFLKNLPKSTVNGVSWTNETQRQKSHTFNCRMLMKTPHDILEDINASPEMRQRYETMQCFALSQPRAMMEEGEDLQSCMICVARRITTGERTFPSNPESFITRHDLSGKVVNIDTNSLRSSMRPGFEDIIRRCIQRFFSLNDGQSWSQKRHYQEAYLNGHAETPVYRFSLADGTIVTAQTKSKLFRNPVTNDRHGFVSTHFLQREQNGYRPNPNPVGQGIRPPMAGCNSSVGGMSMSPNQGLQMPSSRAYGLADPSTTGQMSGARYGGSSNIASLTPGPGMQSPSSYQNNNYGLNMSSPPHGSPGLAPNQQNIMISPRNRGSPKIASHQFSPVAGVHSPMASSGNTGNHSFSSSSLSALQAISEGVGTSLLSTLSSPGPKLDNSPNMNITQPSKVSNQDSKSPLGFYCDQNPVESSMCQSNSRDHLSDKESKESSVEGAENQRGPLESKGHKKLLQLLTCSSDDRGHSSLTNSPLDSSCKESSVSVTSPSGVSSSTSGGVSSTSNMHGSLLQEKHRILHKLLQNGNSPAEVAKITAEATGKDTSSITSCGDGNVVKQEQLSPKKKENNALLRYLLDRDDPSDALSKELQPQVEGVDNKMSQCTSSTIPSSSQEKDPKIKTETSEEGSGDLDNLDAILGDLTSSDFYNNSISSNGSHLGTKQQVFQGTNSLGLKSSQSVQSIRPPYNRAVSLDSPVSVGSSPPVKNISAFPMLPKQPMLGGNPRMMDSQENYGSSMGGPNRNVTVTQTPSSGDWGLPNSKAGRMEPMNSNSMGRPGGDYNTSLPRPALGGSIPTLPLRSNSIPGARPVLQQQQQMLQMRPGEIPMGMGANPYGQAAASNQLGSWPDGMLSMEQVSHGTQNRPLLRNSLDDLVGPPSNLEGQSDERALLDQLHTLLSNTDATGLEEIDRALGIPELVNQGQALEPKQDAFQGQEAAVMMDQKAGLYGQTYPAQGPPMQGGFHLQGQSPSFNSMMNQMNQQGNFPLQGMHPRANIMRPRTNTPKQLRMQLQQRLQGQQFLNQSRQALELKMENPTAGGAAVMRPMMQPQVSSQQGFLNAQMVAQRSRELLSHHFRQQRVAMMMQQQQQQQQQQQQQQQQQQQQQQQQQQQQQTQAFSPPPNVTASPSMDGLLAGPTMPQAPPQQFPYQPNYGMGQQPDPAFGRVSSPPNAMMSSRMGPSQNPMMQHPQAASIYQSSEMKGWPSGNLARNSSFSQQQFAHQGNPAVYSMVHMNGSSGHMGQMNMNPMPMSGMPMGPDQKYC
UniProt Q15648: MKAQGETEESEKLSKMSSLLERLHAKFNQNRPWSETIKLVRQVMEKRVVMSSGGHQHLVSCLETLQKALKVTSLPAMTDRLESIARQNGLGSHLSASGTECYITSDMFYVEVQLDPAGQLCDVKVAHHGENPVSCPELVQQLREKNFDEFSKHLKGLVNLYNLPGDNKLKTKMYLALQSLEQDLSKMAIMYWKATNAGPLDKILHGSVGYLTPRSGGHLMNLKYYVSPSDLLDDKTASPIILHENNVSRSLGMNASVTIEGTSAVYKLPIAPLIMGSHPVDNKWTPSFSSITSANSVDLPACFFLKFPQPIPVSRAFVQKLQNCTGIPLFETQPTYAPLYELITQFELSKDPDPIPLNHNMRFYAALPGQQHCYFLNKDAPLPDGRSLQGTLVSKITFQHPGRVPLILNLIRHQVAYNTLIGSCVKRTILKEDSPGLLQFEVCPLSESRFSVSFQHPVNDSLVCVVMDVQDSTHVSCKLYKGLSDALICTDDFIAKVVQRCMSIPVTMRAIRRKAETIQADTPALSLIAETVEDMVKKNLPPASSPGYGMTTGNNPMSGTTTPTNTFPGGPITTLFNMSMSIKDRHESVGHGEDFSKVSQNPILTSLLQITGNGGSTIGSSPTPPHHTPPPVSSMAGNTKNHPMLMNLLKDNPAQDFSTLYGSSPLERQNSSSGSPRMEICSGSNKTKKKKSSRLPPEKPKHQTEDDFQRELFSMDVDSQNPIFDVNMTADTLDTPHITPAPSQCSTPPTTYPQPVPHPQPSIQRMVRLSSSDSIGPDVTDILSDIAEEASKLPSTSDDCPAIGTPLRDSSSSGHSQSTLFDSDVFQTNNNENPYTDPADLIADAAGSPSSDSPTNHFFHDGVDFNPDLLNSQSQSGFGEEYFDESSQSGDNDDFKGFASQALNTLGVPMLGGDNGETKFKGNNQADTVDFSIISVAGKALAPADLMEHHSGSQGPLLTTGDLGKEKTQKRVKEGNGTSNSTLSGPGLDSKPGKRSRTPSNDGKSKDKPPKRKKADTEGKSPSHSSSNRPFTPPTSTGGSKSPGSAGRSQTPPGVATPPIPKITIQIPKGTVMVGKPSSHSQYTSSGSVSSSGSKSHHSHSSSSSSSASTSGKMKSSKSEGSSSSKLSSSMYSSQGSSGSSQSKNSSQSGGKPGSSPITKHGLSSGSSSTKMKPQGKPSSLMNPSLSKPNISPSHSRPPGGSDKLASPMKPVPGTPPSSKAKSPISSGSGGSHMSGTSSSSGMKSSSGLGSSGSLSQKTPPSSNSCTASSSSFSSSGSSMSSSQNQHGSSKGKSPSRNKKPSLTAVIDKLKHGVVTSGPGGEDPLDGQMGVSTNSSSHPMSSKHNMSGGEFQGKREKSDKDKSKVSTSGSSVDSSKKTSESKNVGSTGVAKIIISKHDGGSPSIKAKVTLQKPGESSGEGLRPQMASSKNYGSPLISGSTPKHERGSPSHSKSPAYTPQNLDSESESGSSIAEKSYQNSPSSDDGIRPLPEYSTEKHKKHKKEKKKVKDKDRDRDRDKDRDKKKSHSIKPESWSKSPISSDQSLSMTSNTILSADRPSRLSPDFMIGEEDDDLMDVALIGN

Molecular target: GST-ERβ-LBD (UniProt Q92731)
Assay: GST pull-down from MCF-7 cell extract; bands with ligand-dependent interaction identified by mass spectrometry

binding	Substance
binds	SRC3 (from UniProt Q9Y6Q9 2-1424)
binds	DRIP205 (from UniProt Q15648 1-1581)

Results are given in words; binding and its absence hold for the method and conditions named. Binding seen in cells or lysates may run through a third protein. Here binding means that the protein was enriched with, or labelled near, the bait; the list need not be complete.
